Assays:
Format in all cases: cell-based
C4-2B = test: Cytotoxic activity test (MTT) on C4-2B prostate cancer cells; details: Homo sapiens, C4-2B cells
Procedure: (§1) All prostate cancer cells were cultured with a RPMI-1640 medium containing 10% calf serum, 100 units of penicillin per milliliter and 100 µg/mL of streptomycin in a constant temperature incubator containing 5% carbon dioxide at a saturated humidity of 37° C.
(§2) Cells in the logarithmic phase of growth were taken and cultured in 96-well plates for 24 hours (5×10^3 cells/well), then treated with different concentrations of the compounds to be tested, and incubated by MTT method for 4 hours. The supernatant was removed by centrifugation, the MTT crystals were dissolved by adding DMSO, and the absorbance value was measured by an enzyme-linked immunosorbent assay at a wavelength of 570 nm. The cytotoxic activity of the compounds to be tested on cancer cells was expressed as IC50.

LNcap = test: Cytotoxic activity test (MTT) on LNcap prostate cancer cells; details: Homo sapiens
Procedure: as §1, §2

Vcap-CRPC = test: Cytotoxic activity test (MTT) on Vcap-CRPC prostate cancer cells; details: Homo sapiens
Procedure: as §1, §2

C4-2B/ENZR = test: Cytotoxic activity test (MTT) on C4-2B/ENZR prostate cancer cells; details: Homo sapiens, C4-2B/ENZR cells
Procedure: as §1, §2

## CNC(=O)c1ccc(N2C(=S)N(c3ccc(C#N)c(C(F)(F)F)c3)C(=O)C2(C)C)cc1F [ENZ, enzalutamide, reference compound]
C4-2B
  IC50: 24.8 µM
LNcap
  IC50: 20.7 µM
Vcap-CRPC
  IC50: 57.3 µM
C4-2B/ENZR
  IC50: 62.3 µM
